Series [1] concerns the target T1, H-NS-His6 (Escherichia coli) (UniProt P0ACF8).
T1 sequence (looked up, limits assumed): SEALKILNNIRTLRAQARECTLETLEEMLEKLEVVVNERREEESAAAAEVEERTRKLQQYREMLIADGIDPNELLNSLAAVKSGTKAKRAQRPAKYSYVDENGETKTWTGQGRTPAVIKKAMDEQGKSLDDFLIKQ
In words: competitive EMSA. The conditions noted are these: pBR322 TaqI/SspI fragments as competitor; EMSA: 0.1 ng 32P probe, 15 ul, 30 min at 25 C (stated for GadE/RcsBD56E), 6% native PAGE; recombinant protein; protein details: C-terminal His6; probe letters rebuilt from the primers and the genome. On the technique in general: A gel shift assay detects complexes by their altered migration in electrophoresis.

For series [2], the target named is T2, HdfR-His6 (Escherichia coli) (UniProt P0A8R9).
T2 sequence (looked up, limits assumed): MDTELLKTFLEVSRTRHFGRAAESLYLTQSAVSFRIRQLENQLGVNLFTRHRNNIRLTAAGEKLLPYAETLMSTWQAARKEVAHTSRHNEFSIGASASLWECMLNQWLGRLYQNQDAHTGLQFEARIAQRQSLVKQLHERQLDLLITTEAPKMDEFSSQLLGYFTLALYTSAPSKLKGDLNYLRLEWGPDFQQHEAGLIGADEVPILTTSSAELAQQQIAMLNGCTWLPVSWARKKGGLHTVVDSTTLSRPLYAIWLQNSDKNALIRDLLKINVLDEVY
The series is described as follows: EMSA. Conditions: EMSA: 0.1 ng 32P probe, 15 ul, 30 min at 25 C (stated for GadE/RcsBD56E), 6% native PAGE; recombinant protein; protein details: C-terminal His6; label: 32P; probe letters rebuilt from the primers and the genome.

Series [3] has as its target T3, Strep-AdiY (Escherichia coli) (UniProt P33234).
T3 sequence (looked up, limits assumed): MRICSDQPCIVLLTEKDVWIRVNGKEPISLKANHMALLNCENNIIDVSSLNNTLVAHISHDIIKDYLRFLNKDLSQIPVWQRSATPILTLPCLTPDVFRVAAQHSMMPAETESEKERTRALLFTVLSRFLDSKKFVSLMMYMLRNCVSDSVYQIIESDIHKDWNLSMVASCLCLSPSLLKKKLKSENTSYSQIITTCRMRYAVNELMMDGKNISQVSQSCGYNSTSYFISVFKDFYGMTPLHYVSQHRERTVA
The series is described as follows: EMSA. Conditions: EMSA: 0.1 ng 32P probe, 15 ul, 30 min at 25 C (stated for GadE/RcsBD56E), 6% native PAGE; recombinant protein; protein details: N-terminal Strep; label: 32P; probe letters rebuilt from the primers and the genome.

Construct, isoform or probe ends are uncertain for at least one entry. Tags and fusion partners may be left off the protein sequences shown.

As to “ACAGAACAAACGAGCGACATTTTATCTCCTTAAAACAATAAAGTTTTTATCGATACTTTTTTAACATTTCATATTTATAATTTGCTGTTTGTTTTCAGCCTTGCAAACTATTGATAATGAAATGTGTAAGATCTCTTGCAATGCGACCCATTTCTGAAATACTCAGCTGATCAATTGCCGAAAAAATGGCTATCAACGTAAGTGTCAGTAATAAGACAACCACAATTGCAGACATGATTTCTTTATAGTTGTCTCTTTGCGTGATTTTGTTTTTCACTGTGGTCGCATGCATTTCAAATATGTTTATTTAGCGGATAACGTTAAAAATCGTTAATCAGTA (double strand) [ydeO promoter]”, the binding result in series [1] was “binds”.
As for “TTCGCATCGGTTAATACGGTGAAGAGGGGATCTCAATTACTGCATAAATATGATGAGCAGGCTGCTCATCCAGAAAGCTTCCAGCGGATTTCCAACTTATCGGGAAAGCTGATACAGGTCAAATGGCAAGCTTATTGGTACAGAAATGTGCTTTAGCGCAAAATTCTTTATTAAATGACTGAAATTAAAATGGATTTTATCTTTAAGGCTAAAAGGGAAGTCGTTAGAGAAACAGTCAATTCCTGACTGTCATAAAGGTGTGTTAACCCTTATCCTGCCTTGAACTGACGACAAAACCAGCATTTTATACTGCCTTAATTGGTAATGACGTTTCATGCTACTGTTTTTGCCTAAAATCCATCAGGAGATAAAAAAATCTGACACAAGATAAGCAAAAGTGATTTATGTGATTATGCATGAAATTTCGGTAATTTTG (double strand) [gltBD promoter]”, the binding result in series [2] and in series [3] was “binds” each time.
With “TTGCGTTCATAGATTATTCCCTTTGCAATGAAGCATCTCCCTTCTCCCTGTAGTAATACAGACATAAGGCGTCATCTCATTTTCTCAATAAAAATAAGAAAATCTGAGCTTCCTTTAAGATAATTCGACAAGTATACCATATAAATAGTCGGCATAAATGAAATGTCAACAATAAAATCAGGGATTGTACCGATGATTTATAGTTTCAAGTTGGCACTATAAGTCTTCTTACTAATCCTACAGGCGTAAGAATTGTATTGCAAAAGCCACGGTTTAGTCCTCTGTTGTTTTTTTTGCACCTCATTTAAAT (double strand) [evgA promoter]”, the binding result in series [1] is recorded as “binds”.

Values taken from paper PMC2984483.
